Consider 20 substances from article PMC5451543.

Amino acid sequences for entries named in this document (tags omitted).
UniProt P25786: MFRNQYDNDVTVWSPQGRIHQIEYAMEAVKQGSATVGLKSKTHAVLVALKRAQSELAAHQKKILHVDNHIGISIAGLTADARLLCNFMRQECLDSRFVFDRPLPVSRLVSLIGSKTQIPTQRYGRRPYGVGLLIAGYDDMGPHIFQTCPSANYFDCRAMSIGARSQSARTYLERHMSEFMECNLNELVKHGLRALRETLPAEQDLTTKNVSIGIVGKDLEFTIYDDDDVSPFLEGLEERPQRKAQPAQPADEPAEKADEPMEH
UniProt P62191: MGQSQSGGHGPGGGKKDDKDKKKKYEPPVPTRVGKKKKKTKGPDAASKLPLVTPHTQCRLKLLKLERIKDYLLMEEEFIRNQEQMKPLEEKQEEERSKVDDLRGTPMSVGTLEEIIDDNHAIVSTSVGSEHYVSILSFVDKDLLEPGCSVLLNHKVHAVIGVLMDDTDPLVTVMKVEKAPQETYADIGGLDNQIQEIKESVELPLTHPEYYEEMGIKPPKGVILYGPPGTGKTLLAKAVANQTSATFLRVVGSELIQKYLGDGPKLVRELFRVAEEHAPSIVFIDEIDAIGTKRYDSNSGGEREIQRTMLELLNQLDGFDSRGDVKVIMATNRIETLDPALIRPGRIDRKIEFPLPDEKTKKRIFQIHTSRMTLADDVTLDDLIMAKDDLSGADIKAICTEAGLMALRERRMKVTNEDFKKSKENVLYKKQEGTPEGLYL
UniProt P62195: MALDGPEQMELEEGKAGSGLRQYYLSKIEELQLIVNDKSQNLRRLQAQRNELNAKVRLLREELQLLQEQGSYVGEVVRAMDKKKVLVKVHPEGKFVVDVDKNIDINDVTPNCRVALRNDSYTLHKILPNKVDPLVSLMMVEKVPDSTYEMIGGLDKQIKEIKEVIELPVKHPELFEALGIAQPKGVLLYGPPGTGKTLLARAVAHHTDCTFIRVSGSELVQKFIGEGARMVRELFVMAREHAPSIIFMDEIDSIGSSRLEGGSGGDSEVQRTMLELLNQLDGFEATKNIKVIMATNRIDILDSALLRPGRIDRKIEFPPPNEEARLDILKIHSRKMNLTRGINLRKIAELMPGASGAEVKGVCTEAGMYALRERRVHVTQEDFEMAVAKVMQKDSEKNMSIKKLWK
UniProt P62333: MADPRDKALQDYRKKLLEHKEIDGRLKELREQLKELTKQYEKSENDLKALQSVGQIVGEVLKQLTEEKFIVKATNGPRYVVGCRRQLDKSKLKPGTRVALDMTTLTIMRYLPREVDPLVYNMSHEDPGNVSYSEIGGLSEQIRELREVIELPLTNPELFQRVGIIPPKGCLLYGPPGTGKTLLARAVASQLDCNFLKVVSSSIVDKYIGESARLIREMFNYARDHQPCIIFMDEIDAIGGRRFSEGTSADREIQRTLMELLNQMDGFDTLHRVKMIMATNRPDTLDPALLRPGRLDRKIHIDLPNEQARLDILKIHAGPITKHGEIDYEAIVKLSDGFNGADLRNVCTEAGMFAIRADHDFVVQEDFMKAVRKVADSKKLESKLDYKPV
UniProt O43242: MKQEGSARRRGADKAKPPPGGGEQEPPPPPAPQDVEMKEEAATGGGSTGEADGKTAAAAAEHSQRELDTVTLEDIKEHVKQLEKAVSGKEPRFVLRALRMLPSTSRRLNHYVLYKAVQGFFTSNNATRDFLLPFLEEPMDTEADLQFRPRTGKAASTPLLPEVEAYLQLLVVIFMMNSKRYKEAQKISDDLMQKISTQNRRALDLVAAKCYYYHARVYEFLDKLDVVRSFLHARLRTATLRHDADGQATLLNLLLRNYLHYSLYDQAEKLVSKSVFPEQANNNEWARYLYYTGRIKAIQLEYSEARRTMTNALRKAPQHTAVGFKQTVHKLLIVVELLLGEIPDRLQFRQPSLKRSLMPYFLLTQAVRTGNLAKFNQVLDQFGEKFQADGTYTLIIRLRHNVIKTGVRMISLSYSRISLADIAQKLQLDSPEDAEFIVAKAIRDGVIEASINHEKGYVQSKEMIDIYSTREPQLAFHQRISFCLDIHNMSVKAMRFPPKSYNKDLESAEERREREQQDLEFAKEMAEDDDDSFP
UniProt Q15008: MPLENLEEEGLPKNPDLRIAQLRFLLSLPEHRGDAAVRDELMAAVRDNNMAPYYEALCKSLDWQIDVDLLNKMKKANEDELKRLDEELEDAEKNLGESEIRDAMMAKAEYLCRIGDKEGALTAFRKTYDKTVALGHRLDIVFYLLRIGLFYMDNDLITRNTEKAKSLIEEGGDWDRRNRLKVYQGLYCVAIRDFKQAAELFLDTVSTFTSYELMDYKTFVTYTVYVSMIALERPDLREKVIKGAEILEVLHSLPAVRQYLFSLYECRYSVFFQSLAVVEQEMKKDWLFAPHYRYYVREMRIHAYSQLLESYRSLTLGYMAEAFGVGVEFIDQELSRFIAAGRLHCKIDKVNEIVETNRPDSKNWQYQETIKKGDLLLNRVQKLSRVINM
UniProt P51665: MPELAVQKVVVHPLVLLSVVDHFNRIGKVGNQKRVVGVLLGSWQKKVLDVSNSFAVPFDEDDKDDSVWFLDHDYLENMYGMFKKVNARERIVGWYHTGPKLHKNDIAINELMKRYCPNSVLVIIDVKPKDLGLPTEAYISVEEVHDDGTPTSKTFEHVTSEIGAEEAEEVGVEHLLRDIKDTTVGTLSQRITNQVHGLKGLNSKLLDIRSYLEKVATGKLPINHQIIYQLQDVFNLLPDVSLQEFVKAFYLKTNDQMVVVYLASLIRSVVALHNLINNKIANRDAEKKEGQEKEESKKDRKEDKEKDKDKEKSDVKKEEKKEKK
UniProt O75832: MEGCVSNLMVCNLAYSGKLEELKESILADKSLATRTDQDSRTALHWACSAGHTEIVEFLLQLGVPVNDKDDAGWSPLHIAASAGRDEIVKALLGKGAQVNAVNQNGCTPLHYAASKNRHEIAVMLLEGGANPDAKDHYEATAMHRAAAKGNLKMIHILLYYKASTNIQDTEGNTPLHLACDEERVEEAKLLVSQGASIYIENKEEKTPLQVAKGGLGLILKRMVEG
UniProt O00232: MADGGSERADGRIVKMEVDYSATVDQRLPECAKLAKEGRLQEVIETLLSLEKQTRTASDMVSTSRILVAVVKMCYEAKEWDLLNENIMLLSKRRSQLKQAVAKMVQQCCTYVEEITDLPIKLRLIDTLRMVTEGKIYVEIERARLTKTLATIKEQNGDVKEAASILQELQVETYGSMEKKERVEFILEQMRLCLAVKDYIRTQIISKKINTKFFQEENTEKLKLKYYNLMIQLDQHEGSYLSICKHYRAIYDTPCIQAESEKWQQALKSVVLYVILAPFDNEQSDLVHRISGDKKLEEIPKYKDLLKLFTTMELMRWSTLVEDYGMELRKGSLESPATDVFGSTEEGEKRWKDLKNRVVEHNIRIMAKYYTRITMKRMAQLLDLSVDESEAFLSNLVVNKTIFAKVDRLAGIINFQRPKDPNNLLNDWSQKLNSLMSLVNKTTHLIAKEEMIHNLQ
UniProt Q9UNM6: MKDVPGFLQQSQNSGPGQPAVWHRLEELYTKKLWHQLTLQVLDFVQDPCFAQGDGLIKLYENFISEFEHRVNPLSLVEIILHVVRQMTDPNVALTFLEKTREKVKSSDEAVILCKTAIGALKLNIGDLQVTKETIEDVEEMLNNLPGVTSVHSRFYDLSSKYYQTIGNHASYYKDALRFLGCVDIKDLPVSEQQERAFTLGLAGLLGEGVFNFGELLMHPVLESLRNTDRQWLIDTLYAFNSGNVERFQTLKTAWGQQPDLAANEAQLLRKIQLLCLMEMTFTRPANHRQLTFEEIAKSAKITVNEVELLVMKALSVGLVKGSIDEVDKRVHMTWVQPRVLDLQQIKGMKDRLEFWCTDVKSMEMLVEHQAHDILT
UniProt O00487: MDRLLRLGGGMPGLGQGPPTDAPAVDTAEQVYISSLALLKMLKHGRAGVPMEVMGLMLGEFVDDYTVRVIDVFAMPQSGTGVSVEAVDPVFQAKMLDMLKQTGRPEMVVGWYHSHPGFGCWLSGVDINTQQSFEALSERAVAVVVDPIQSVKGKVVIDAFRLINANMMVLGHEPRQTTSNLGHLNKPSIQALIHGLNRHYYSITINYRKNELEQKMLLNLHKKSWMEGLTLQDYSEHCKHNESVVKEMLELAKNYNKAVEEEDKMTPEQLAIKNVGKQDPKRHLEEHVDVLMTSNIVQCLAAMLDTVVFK
UniProt Q9BRP4: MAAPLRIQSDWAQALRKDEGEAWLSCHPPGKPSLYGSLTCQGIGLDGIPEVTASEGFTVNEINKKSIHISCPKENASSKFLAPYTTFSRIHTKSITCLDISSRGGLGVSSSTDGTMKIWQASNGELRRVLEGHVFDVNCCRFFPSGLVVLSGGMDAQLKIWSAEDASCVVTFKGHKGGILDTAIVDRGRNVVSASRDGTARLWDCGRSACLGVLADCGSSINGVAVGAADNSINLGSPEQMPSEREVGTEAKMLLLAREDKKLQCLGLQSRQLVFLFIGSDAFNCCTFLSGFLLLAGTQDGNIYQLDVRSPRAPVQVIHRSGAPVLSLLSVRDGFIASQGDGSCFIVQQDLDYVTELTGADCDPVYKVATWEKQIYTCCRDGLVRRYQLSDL
UniProt Q13200: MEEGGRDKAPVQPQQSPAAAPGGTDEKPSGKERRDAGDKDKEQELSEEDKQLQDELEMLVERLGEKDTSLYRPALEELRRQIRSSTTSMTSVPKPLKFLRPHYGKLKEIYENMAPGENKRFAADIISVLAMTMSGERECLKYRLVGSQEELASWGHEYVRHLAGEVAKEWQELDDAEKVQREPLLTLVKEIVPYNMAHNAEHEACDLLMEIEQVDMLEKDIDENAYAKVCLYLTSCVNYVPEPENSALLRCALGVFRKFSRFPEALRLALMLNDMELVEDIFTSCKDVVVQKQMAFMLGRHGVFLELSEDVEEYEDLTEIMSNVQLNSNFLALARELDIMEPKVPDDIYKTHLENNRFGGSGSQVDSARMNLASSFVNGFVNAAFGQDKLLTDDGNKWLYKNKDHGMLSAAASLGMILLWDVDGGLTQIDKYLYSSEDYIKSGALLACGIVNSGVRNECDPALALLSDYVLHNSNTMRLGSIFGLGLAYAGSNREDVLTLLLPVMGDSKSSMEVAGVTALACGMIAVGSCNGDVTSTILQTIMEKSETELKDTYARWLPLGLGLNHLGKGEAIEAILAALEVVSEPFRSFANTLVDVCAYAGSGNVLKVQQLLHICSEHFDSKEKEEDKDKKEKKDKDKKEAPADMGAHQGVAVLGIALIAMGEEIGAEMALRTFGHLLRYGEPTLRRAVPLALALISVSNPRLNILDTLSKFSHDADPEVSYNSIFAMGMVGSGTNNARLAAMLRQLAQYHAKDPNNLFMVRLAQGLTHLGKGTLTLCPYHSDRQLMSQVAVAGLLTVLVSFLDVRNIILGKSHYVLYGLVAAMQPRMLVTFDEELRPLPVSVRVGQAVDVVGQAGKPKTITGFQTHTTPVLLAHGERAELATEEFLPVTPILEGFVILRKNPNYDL

No constants are given. Whether binding was seen depends on the method and setting. In cells and extracts the contact can be indirect. These calls come from enrichment with a bait or labelling near it, and not all partners need be listed. A no says only that the protein was not detected with the bait. Tags and fused reporters may be left off the sequences shown.

The target of this assay is T1, FLAG-UBLCP1 (human) (UniProt Q8WVY7).
T1 sequence: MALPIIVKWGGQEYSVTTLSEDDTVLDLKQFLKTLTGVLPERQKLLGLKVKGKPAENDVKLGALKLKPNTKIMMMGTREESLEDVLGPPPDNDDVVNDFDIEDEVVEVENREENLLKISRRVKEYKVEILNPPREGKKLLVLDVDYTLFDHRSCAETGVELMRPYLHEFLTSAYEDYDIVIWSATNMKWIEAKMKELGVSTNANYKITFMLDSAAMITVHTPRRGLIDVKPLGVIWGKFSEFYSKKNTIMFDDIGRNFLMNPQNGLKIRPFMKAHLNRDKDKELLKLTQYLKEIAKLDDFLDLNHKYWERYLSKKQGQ
The assay is described as follows: affinity purification with mass spectrometry; lysates of HEK293T stably overexpressing FLAG-UBLCP1; IP with anti-UBLCP1 antibody or control rabbit IgG; IP products analysed by mass spectrometry.
For PSMA1 (from UniProt P25786 1-263), the binding result is “no binding”. Consider PSMA2 (from UniProt P25787 1-234), for which the binding result is on record as “no binding”. As for PSMA3 (from UniProt P25788 1-255), the binding result is recorded as “no binding”. Then PSMA5 iso.1 (from UniProt P28066 1-241), with “no binding”; and “PSMA5 iso.2 (human (endogenous in HEK293T))”, with “no binding”.

Turning to PSMA6 (from UniProt P60900 1-246), the binding result is “no binding”. Then PSMA7 (from UniProt O14818 1-248), with “no binding”; and PSMC1 (from UniProt P62191 1-440), with “binds”. Under PSMC4 (from UniProt P43686 1-418) stands “binds”; under PSMC5 (from UniProt P62195 1-406), “binds”; under PSMC6 (from UniProt P62333 1-389), “binds”. Regarding PSMD3 (from UniProt O43242 1-534), the binding entry is on record as “binds”. Turning to PSMD6 (from UniProt Q15008 1-389), the binding entry is “binds”. On to PSMD7 (from UniProt P51665 1-324), for which the binding result is on record as “binds”. Turning to PSMD10 (from UniProt O75832 1-226), the binding entry was “binds”. Consider PSMD12 (from UniProt O00232 1-456), for which the binding entry was “binds”. Regarding PSMD13 (from UniProt Q9UNM6 1-376), the binding result is recorded as “binds”. PSMD14 (from UniProt O00487 1-310): the binding result is recorded as “binds”. Take “endogenous PAAF1 (from UniProt Q9BRP4 1-392)”: the binding entry is “binds”. Then “endogenous Rpn1 (from UniProt Q13200 1-908)”, with “binds”.
